{"source": "patent EP1455919B1", "about": "“IODINE EXTRACTION METHOD” (Commissariat à l'Énergie Atomique et aux Énergies …, priority 2001, dated 2003)", "assay": "Iodine transport through a microporous polypropylene membrane impregnated with the organic solvent (supported liquid membrane)", "format": "physicochemical", "key": {"[1]": {"details": "Example 7, after 6 h, HNO3 3 mol/L, iodine 1500 kBq/L, soude 10^-1 mol/L, % of initial iodine"}, "[2]": {"details": "Example 8, after 1 h, acide iodhydrique 10^-3 mol/L added, soude 0,44 mol/L"}, "[3]": {"details": "Example 8, after 2 h, acide iodhydrique 10^-3 mol/L added, soude 0,44 mol/L"}}}
{"smiles": "CCCCCCOc1ccccc1[N+](=O)[O-]", "note": "[1,2-NPHE, 1,2-nitrophénylhexyléther]", "values": [{"measurement": "iode extrait de la solution d'acide nitrique", "setting": "[1]", "result": "> 80", "unit": "%"}, {"measurement": "iode réextrait vers la solution de soude", "setting": "[1]", "result": "> 80", "unit": "%"}, {"measurement": "iode extrait de la solution d'acide nitrique", "setting": "[2]", "result": 95, "unit": "%"}, {"measurement": "iode réextrait vers la solution de soude", "setting": "[2]", "result": "~95", "unit": "%"}, {"measurement": "iode extrait", "setting": "[3]", "result": "> 99", "unit": "%"}, {"measurement": "iode réextrait", "setting": "[3]", "result": "> 99", "unit": "%"}]}
